{"source": "patent US20220000998A1", "about": "(priority 2019, published 2022)", "system": "B16-F1 melanoma cells", "parameters": "species or system mice", "settings": "mouse, in vivo", "note": "Not every detail of the peptide structures is certain; ends, links or a residue may be inferred. No end group written: not given here.", "data": [{"sequence": "FIGITELKKLESKINKVFAVGALKVPRNQDWLGVPRQL [UU-30]", "values": [{"measurement": "average tumour volume", "value": "over 400 mm^3"}]}]}
